From PubChem BioAssay AID504444 (National Center for Advancing Translational Sciences (NCATS), 2011)
The campaign covered roughly 360,000 compounds. About 7,500 (2.1%) were called active. The inconclusive results got no clear call from the source; some entries with a clear call stand among them for comparison. Calls come from the whole dose curve; as a rule, active = well fitted inhibition curve with a large enough effect; inconclusive = small, poorly fitted or top-dose-only effect, or effect the other way; inactive = flat fitted curve, though single readings scatter. A potency beside an inconclusive call is a rough fit, not a confirmed value.

experiment: Nrf2 qHTS screen for inhibitors; conditions: A549 ARE-Fluc reporter, luciferase luminescence, 18-24 h; series mostly up to 46 µM; note: nearly all actives have a fitted effect of over 60% in size
Summary of the method: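 Quantitative HTS in A549 cells stably bearing an antioxidant response element-firefly luciferase construct. Inhibition of Nrf2-driven transcription was scored by luminescence after 18-24 h of compound exposure at 37 °C.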
Potency is the fitted concentration of half-maximal effect.

| SMILES | Potency |
| --- | --- |
| CSc1ccc(CC2C(=O)Nc3ccccc32)cc1 (stereo not given) | inconclusive: 1.84 µM [falling, full curve, poor fit] |
| CCC(=O)N1CCN(c2ccc(Cl)cc2NC(=O)Cc2ccc(Cl)cc2)CC1 | inconclusive: 32.6 µM [falling, single point] |
| O=[N+]([O-])c1cccc(-c2nnc(-c3ccccc3)o2)c1 | inconclusive: 23.1 µM [activator, partial curve] |
| Cc1cc(C)c(C(=O)C(C)OC(=O)c2ccc(Cl)nc2)cc1C (stereo not given) | inconclusive: 29.1 µM [falling, single point] |
| C=CCn1c(N)c(C(=O)OCC)sc1=S | inconclusive: 0.82 µM [falling, full curve, poor fit] |
| O=C(Cc1ccc(S(=O)(=O)N2CCOCC2)s1)Nc1ccc(Br)c(C(F)(F)F)c1 | inconclusive: 29.1 µM [falling, single point] |
| COc1ccc(NC(=O)Nc2c[nH]c(=O)[nH]c2=O)c(OC)c1 | inconclusive: 25.9 µM [activator, single point] |
| COc1ccc(S(=O)(=O)N2CCCC(C(=O)Nc3cccnc3)C2)cc1Cl (stereo not given) | active: 16.4 µM |
| CCN(C[C@H]1N[C@@](C)(C(=O)OC)[C@H]2C(=O)N(C)C(=O)[C@@H]12)S(=O)(=O)c1ccc(OC(F)(F)F)cc1 | inactive |
| Cc1ccc(S(=O)(=O)NC(C)(C)CSc2nnc(Nc3ccccc3)s2)cc1 | inconclusive: 25.9 µM [falling, single point] |
| O=C(CSc1nnc(NC(=O)C2CC2)s1)Nc1ccc(F)cc1 | inconclusive: 23.1 µM [falling, partial curve] |
| c1cc2c(cc1C1CCCCC1)c1c3n2CCN=C3CCC1 | inconclusive: 32.6 µM [falling, partial curve, poor fit] |
| COc1ccccc1CNC(=O)CSc1ncc2c(n1)-c1cc(Cl)ccc1N(Cc1ccccc1)S2(=O)=O | inconclusive: 20.6 µM [activator, single point] |
| Cc1c(C(=O)N(Cc2ccc(Cl)cc2)CC2CCCO2)oc2ccc(F)cc12 (stereo not given) | inconclusive: 29.1 µM [falling, single point] |
| NC(=O)c1c(NC(=O)c2ccccc2)sc2c1CCCC2 | inconclusive: 10.3 µM [activator, partial curve] |
| CCOc1ccc(-c2nc(SCC(=O)NCCCOC)c(-c3ccccc3)[nH]2)cc1 | inconclusive: 5.8 µM [activator, partial curve, poor fit] |
| Cc1ccc(C(C)NC(=O)Cc2cccs2)c(C)c1 (stereo not given) | inconclusive: 23.1 µM [falling, partial curve, poor fit] |
| Cc1ccc(-c2cc(C(=O)NC3=NCCS3)c3ccccc3n2)cc1C | inconclusive: 14.6 µM [activator, partial curve, poor fit] |
| CC(C(=O)NC1CCCC1)N(C(=O)c1ccc(-c2ccccc2)[nH]1)c1ccccc1F (stereo not given) | inconclusive: 29.1 µM [falling, single point] |
| O=C(NC(c1ccc(Cl)cc1)c1cc(Cl)c2cccnc2c1O)c1cccnc1 (stereo not given) | active: 10.3 µM |

| SMILES | Potency |
| --- | --- |
| N#Cc1c(NC(=O)c2ccc(-c3ccccc3[N+](=O)[O-])o2)sc2c1CCCC2 | inconclusive: 23.1 µM [falling, partial curve, poor fit] |
| COc1cc(OC)cc(C(=O)NCC(=O)OCc2nc3ccccc3s2)c1 | inconclusive: 10.3 µM [activator, partial curve] |
| COc1cc(CNc2ncn[nH]2)ccc1OCc1cccc(C)c1 | inconclusive: 10.3 µM [activator, partial curve, poor fit] |
| CCCn1c(=O)c2sccc2n2c(CCCC(=O)N3CCN(c4cccc(C)c4C)CC3)nnc12 | inconclusive: 18.4 µM [falling, single point] |
| CCN(Cc1ccncc1)Cc1nc(Cc2ccccc2Cl)no1 | inconclusive: 20.6 µM [falling, partial curve, poor fit] |
| CSc1nc2c(c(=O)[nH]1)C(c1ccncc1)C(C(=O)OC(C)C)=C(C)N2 (stereo not given) | inconclusive: 10.3 µM [falling, partial curve] |
| CCOC(=O)c1nc(C)[nH]c1C(=O)OCC | inconclusive: 25.9 µM [falling, partial curve, poor fit] |
| COc1ccc(S(=O)(=O)Nc2ccc(-c3ccc4nncn4n3)cc2)c(OC)c1 | inconclusive: 9.2 µM [falling, partial curve] |
| CC(C)Oc1ccc(CNC(=O)c2cnc3sc(N4CCCCC4)nn3c2=O)cc1 | inconclusive: 8.2 µM [activator, partial curve, poor fit] |
| Cc1cn(-c2ccccc2)c(C)c1/C=N\Nc1nc(N2CCOCC2)nc(N2CCOCC2)n1 | inactive |
| COc1ccccc1NC(=O)CC1S/C(=N/N=C(\C)C2CCCCC2)NC1=O (stereo not given) | inconclusive: 32.6 µM [falling, single point] |
| Cc1cc(C(=O)Nc2ccc3ccccc3c2)c(C)o1 | inconclusive: 1.84 µM [activator, full curve] |
| Cc1ccccc1-n1ncc2c(SCC(=O)NC3CCCC3)ncnc21 | active: 8.2 µM |
| O=C(CSc1n[nH]c(-c2cccs2)n1)N1CCN(S(=O)(=O)c2ccc3ccccc3c2)CC1 | inconclusive: 29.1 µM [falling, single point] |
| O=c1/c(=C\c2cccc(O)c2)sc2nc(-c3ccccc3)c(-c3ccccc3)n12 | inconclusive: 29.1 µM [activator, single point] |
| NCCCNc1ccc([N+](=O)[O-])cc1C(F)(F)F | inactive |
| N#Cc1ccc(OC(=O)c2cc(-c3ccc4c(c3)OCCO4)on2)cc1 | inactive |
| CCOc1cc(N2CCOCC2)c(OCC)cc1NC(=O)[C@H](C)N1C(=O)C2CC=CCC2C1=O (stereo not given in full) | inactive |
| CCC(C)Sc1cccc(-c2nc3ccc(Cl)cn3c2NCc2ccccc2)c1 (stereo not given) | inconclusive: 29.1 µM [falling, single point] |
| Cc1nc2c(C(=O)NCCc3ccc(Cl)cc3)c[nH]n2c(=O)c1Cc1ccccc1F | inconclusive: 18.4 µM [falling, single point] |

Of the compounds above, three have a nitro group on carbon:

| SMILES | Potency |
| --- | --- |
| O=[N+]([O-])c1cccc(-c2nnc(-c3ccccc3)o2)c1 | inconclusive: 23.1 µM [activator, partial curve] |
| N#Cc1c(NC(=O)c2ccc(-c3ccccc3[N+](=O)[O-])o2)sc2c1CCCC2 | inconclusive: 23.1 µM [falling, partial curve, poor fit] |
| NCCCNc1ccc([N+](=O)[O-])cc1C(F)(F)F | inactive |
